Measurements reported in PubChem BioAssay AID1347426 (Functional Genomics Laboratory (NCATS/FGL), 2020).
Hit rate of the full screen: of about 31,000 sequences, about 1,400 (4.5%) were called active.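 The calls were made as follows: active = median seed-adjusted z-score above 1 or below -1; inactive = the rest.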 The list shows a part of the results.

Test: Novel Modifiers of Survival Motor Neuron (SMN) Protein: Gene Identification via Genome-wide siRNA Screen;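 also: luminescence tracks full-length SMN protein made from the SMN2 reporter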
Settings: HEK293T SMN2-luciferase reporter, siRNA knockdown, 72 h; actives lie on both sides
Summary of the method: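 HEK293T cells stably expressing an SMN2 splicing/cDNA-luciferase reporter were reverse-transfected with a druggable-genome siRNA library and read by luminescence at 72 hours; hits defined by MAD score above 1.0 or below -1.0.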
For GAAAGAAGCGGUUUUAUUUTT against IGHMBP2, the median seed-adjusted z-score was inactive: -0.271.
In the case of GCCUUUUGCUCAUCUCACUTT against TNFSF11, the median seed-adjusted z-score is reported as inactive: 0.0212.
For GAAUUUCCGUGAAUAGCAATT against KLHL7, the median seed-adjusted z-score was inactive: -0.567.
For GCCCAAUGUUCGAUACUCATT against ALOXE3, the median seed-adjusted z-score was inactive: -0.504.
In the case of CAAAAGGACAAAUCAACGATT against DDAH1, the median seed-adjusted z-score is reported as inactive: 0.138.
With GGGAGAUCUUCGACUCAUATT against ADRBK1 the median seed-adjusted z-score was inactive: 0.
With CAAAGGAUGUCAUUCGUAATT against CKAP5 the median seed-adjusted z-score was active: -1.87.
In the case of GCUACUUGGUGGGUGAUGATT against PAK3, the median seed-adjusted z-score is reported as inactive: 0.
With GGAAUCUCAUUUUAUCGUATT against SLC7A2 the median seed-adjusted z-score was inactive: -0.245.
For GAGUCAAUCUCCGAAAACATT against PKDREJ, the median seed-adjusted z-score was inactive: 0.376.
In the case of GCACAGACGUGGUUCUGCATT against PVRL1, the median seed-adjusted z-score is reported as inactive: -0.362.
In the case of CCACGGCACAUGGAACUAATT against SLC7A14, the median seed-adjusted z-score is reported as inactive: 0.132.
With CCUGAUCACUUGAACUAUUTT against HACE1 the median seed-adjusted z-score was inactive: 0.
With GGACUCUUUUGAAAGCAUATT against ETS1 the median seed-adjusted z-score was inactive: -0.0588.
For GAACUUCGUCAUCCAAAUATT against CDC2, the median seed-adjusted z-score was inactive: 0.424.
For GGAUAACUGCACAUAAGGATT against TGS1, the median seed-adjusted z-score was inactive: -0.564.
With CAGAUAGACUGAUCUCAAATT against 5-Mar the median seed-adjusted z-score was inactive: 0.
For CUAAGAAUCUGCUUAGUAATT against CLDN5, the median seed-adjusted z-score was inactive: 0.
In the case of UAAUGACACUUAUCAAAUATT against PLGLB2, the median seed-adjusted z-score is reported as inactive: 0.234.
For GCAAAUCGCUAGCAUCAUUTT against MLL2, the median seed-adjusted z-score was active: -2.11.
With GCUACUAACAUUACUCCAATT against FOLH1 the median seed-adjusted z-score was inactive: 0.148.
For GAGCAGUCGCGAGAAGAUUTT against PPP1R12C, the median seed-adjusted z-score was inactive: -0.535.
For CCAUGAUGAUAUUCCUUAUTT against PCYT1A, the median seed-adjusted z-score was inactive: 0.0429.
With CGGACAAAUUGGUCAAUGATT against ATP1A3 the median seed-adjusted z-score was inactive: 0.329.
With CAACCGAACAGGACCUGAATT against TARDBP the median seed-adjusted z-score was inactive: 0.987.
In the case of GAUCCAGAUUGGUCAAAAATT against PPAP2A, the median seed-adjusted z-score is reported as inactive: 0.
With GGAAGAAAUUAGCUAAAAATT against MKI67IP the median seed-adjusted z-score was inactive: 0.426.
For UGAUGCCUGUGAUACACUATT against NEU1, the median seed-adjusted z-score was inactive: -0.425.
For GAUACUCAGAAGUUGAUAATT against MYSM1, the median seed-adjusted z-score was inactive: -0.116.
With GGACAGACAGACUAAUGUATT against FOXJ1 the median seed-adjusted z-score was inactive: -0.553.
With AGCUCACGCUGGGAAAAUUTT against SGCG the median seed-adjusted z-score was inactive: 0.886.
With CAUCAGAUGGGAGAAUGAUTT against LSM8 the median seed-adjusted z-score was inactive: -0.44.
With GACGAUUAGUGGGUCAAAATT against GRM7 the median seed-adjusted z-score was inactive: 0.389.
With GCAUAUGACUUGUAUUCCUTT against TFB2M the median seed-adjusted z-score was inactive: 0.206.
With GCUCAUAAGGAUGAACUAUTT against KCNH5 the median seed-adjusted z-score was inactive: -0.827.
For UCAUCACAGCGGUACUGUATT against ITGAX, the median seed-adjusted z-score was inactive: -0.0677.
In the case of GAUUAUACCUUGACAAUGUTT against GABRB2, the median seed-adjusted z-score is reported as inactive: 0.288.
With GGAGAUACCCAAGCAACUATT against PTAR1 the median seed-adjusted z-score was inactive: -0.507.
With GGUUAAUUAUGUAUGGUUUTT against SLC9A9 the median seed-adjusted z-score was inactive: 0.143.
With GAGAAGAACCAGUACAAGATT against KCNJ12 the median seed-adjusted z-score was inactive: -0.641.
With CCACUAGCUGAUUACUAUATT against MED6 the median seed-adjusted z-score was active: -2.15.
For CCAGGCUUCCCAAAAGUGUTT against S100P, the median seed-adjusted z-score was inactive: -0.00831.
In the case of CGGUCAUUGUCGAUGGAUATT against ZNF295, the median seed-adjusted z-score is reported as inactive: 0.371.
In the case of GAUCAUUAAGGAGUAUGAATT against STOML3, the median seed-adjusted z-score is reported as inactive: -0.0711.
With CAACUAGUGCAACCAGUAATT against ZNF207 the median seed-adjusted z-score was active: -3.1.
In the case of GGAAAUUGGUUUGUAGGAATT against PVRL3, the median seed-adjusted z-score is reported as inactive: -0.0385.
With AUGUGGUGGUUUAUAGCUATT against ERCC2 the median seed-adjusted z-score was inactive: -0.0551.
In the case of GCAUGACCCUCACGAUACATT against LIMK1, the median seed-adjusted z-score is reported as inactive: -0.428.
With GGGAAGCUAUGCGAAAUUATT against RBPJ the median seed-adjusted z-score was inactive: -0.452.
With GCAGUUCGGCAGUAUCUGUTT against PSMD6 the median seed-adjusted z-score was active: -1.03.
With GACCAGCCGUGUAGAAGAATT against PPP1R12B the median seed-adjusted z-score was inactive: 0.416.
With GCAGCUAUUUGUCUCCGAATT against USP43 the median seed-adjusted z-score was inactive: 0.
With GCAAAAGGUGUUUCACAUUTT against FGD1 the median seed-adjusted z-score was inactive: 0.414.
With GCAUCUCACCCACUGCCUUTT against TSKU the median seed-adjusted z-score was inactive: -0.548.
